Measured data: PubChem BioAssay AID1671195 (Yale University, 2021)
Test: 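Genes whose knockdown alters LDL uptake in liver cancer cells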 (primary screen). Cell system: human Huh7 hepatoma cells. Knock-down reagent: siRNA pool against human genes, 18 nM. Time to read-out: about 2 to 2.5 days of knockdown, then 8 h LDL uptake. Challenge: DiI-labelled LDL at 30 µg/ml for 8 h, in lipoprotein-deficient serum medium. Read-out: 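Per-cell DiI-LDL intensity by automated imaging; well means scaled to the plate median and given as a robust z-score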. Reading the numbers: robust z-score: higher = more LDL uptake after knockdown. Call rule: 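a gene counts as active if at least two replicate z-scores exceed ±2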.
The deposit covers about 22,000 reagents; below is a random part of them. About 1,510 of all reagents (6.9%) count as active. 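Active includes knockdowns raising or lowering LDL uptake; positive z-scores mean more uptake, negative mean less.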

SCGB2B2 → robust z-score, replicate 1 = -0.569; robust z-score, replicate 2 = -0.297; robust z-score, replicate 3 = -0.198; Call = inactive
AQP4-AS1 → robust z-score, replicate 1 = -0.542; robust z-score, replicate 2 = -0.53; robust z-score, replicate 3 = -0.943; Call = inactive
B4GALT7 → robust z-score, replicate 1 = -2.03; robust z-score, replicate 2 = 0.00339; robust z-score, replicate 3 = -1.81; Call = inactive
GANC → robust z-score, replicate 1 = -0.734; robust z-score, replicate 2 = -1.36; robust z-score, replicate 3 = -1.26; Call = inactive
GUCY2C → robust z-score, replicate 1 = -0.106; robust z-score, replicate 2 = 1.67; robust z-score, replicate 3 = 1.3; Call = inactive
COX4I2 → robust z-score, replicate 1 = 0.811; robust z-score, replicate 2 = 1.75; robust z-score, replicate 3 = 0.37; Call = inactive
TNPO3 → robust z-score, replicate 1 = -1.07; robust z-score, replicate 2 = -0.891; robust z-score, replicate 3 = -0.633; Call = inactive

An excerpt taken from the entries so far, as a working copy:
GANC → robust z-score, replicate 1 = -0.734; robust z-score, replicate 2 = -1.36; robust z-score, replicate 3 = -1.26; Call = inactive
GUCY2C → robust z-score, replicate 1 = -0.106; robust z-score, replicate 2 = 1.67; robust z-score, replicate 3 = 1.3; Call = inactive

The list goes on.
SYT4 → robust z-score, replicate 1 = 0.168; robust z-score, replicate 2 = 0.139; robust z-score, replicate 3 = 0.218; Call = inactive
RASSF1 → robust z-score, replicate 1 = 1.01; robust z-score, replicate 2 = 1.15; robust z-score, replicate 3 = 0.819; Call = inactive
CETP → robust z-score, replicate 1 = -0.522; robust z-score, replicate 2 = -0.0236; robust z-score, replicate 3 = 0.3; Call = inactive
GPR179 → robust z-score, replicate 1 = -1.84; robust z-score, replicate 2 = -1.76; robust z-score, replicate 3 = -0.363; Call = inactive
GBX2 → robust z-score, replicate 1 = 3.6; robust z-score, replicate 2 = 5.01; robust z-score, replicate 3 = 4.04; Call = active
TCTN2 → robust z-score, replicate 1 = -0.365; robust z-score, replicate 2 = 0.23; robust z-score, replicate 3 = -0.381; Call = inactive
C1QA → robust z-score, replicate 1 = -0.471; robust z-score, replicate 2 = -0.0802; robust z-score, replicate 3 = -0.181; Call = inactive
PACRG → robust z-score, replicate 1 = -1.34; robust z-score, replicate 2 = 0.163; robust z-score, replicate 3 = 0.329; Call = inactive
STMN4 → robust z-score, replicate 1 = -1.54; robust z-score, replicate 2 = -1.26; robust z-score, replicate 3 = -1.06; Call = inactive
